These are yes or no findings as the source states them, for the method shown. In cells and extracts the contact can be indirect. Where a sequence is shown, tags or fusion partners need not be part of it.
Biological target: T1, HA-tagged IKKα (exogenous, wild type) (human (cDNA from HeLa cells)) (UniProt O15111)
T1 sequence: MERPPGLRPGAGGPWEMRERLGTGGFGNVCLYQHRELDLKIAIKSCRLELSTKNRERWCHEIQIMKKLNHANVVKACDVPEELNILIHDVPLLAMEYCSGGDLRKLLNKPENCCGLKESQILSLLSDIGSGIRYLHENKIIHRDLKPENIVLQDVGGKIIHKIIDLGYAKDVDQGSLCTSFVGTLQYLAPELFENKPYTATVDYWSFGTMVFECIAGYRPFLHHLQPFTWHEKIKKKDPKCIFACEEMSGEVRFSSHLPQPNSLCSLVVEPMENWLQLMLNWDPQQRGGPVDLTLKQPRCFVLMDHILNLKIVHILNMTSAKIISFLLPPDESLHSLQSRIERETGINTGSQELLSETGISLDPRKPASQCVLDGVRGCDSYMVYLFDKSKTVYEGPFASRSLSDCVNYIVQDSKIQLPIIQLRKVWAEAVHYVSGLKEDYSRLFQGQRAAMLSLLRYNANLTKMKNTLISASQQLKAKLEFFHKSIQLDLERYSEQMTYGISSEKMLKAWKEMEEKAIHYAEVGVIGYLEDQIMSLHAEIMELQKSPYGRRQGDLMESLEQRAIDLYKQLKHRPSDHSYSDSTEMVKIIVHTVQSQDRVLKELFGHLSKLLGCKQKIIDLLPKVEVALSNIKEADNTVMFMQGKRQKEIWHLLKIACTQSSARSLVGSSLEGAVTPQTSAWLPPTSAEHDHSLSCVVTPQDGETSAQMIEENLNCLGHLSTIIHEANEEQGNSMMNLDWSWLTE
Assay: co-IP; anti-HA antibody beads, lysate of HeLa cells transfected with HA-tagged IKKα, overnight at 4°C, 5 washes PBS-0.1% Tween 20; cells with or without poly I:C for 4 h; blot with anti-STAT1

Amino acid sequences for entries named in this document (tags omitted).
UniProt P42224: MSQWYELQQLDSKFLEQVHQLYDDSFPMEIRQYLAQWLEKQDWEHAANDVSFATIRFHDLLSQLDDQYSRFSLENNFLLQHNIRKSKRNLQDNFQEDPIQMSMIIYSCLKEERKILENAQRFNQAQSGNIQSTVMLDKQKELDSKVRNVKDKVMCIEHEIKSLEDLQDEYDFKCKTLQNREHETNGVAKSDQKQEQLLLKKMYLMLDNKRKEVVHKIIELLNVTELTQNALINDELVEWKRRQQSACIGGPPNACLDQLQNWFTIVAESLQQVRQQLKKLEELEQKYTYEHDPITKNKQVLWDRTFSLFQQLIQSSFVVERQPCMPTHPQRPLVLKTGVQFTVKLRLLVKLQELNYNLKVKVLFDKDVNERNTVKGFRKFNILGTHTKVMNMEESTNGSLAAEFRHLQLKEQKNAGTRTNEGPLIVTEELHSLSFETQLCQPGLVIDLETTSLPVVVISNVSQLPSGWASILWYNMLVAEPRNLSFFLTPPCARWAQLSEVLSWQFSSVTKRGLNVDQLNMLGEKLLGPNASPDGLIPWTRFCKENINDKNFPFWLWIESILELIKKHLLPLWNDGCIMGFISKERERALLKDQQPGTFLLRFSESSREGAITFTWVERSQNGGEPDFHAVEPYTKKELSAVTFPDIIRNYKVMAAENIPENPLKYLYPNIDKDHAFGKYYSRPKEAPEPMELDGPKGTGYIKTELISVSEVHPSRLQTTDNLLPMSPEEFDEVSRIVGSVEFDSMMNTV

signal transducer and activator of transcription-1 (STAT1), endogenous (from UniProt P42224 1-750)
binding: no binding
